Experimental data reported in the supplement of paper PMC8975748.
Structures can show the parent of a compound that is named as a salt. ± gives the standard deviation of the averaged measurements. This is one part of the list. These are raw signals, not scaled to a control.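 A single yeast strain with four plasmids, each encoding a fluorescent protein and an amino-acid or uracil biosynthesis gene, seeds the community. Stochastic plasmid loss yields mixed prototroph and auxotroph subpopulations. Fixed cells were counted via automated confocal fluorescence imaging; DMSO-treated wells were the vehicle reference.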

What follows are molecules tested on Saccharomyces cerevisiae BY4741 SeMeCo community (assay: imaged cell count per well (cells); higher = more cells). Details: 10 µM; 24 h; SM minimal medium.
Experimental: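 Same SeMeCo high-content imaging drug screen: Selleck FDA-approved drugs at 10 µM, 24 h in SM medium, 384-well plates, 3 replicates.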
With `Cc1onc(-c2c(F)cccc2Cl)c1C(=O)N[C@@H]1C(=O)N2[C@@H]1SC(C)(C)[C@@H]2C(=O)O` [Flucloxacillin sodium] the “imaged cell count per well” value was 20200 ± 10000. With `C[C@]1(Cn2ccnn2)[C@H](C(=O)O)N2C(=O)C[C@H]2S1(=O)=O` [Tazobactam] the “imaged cell count per well” value was 21600 ± 13000. For `CN(C)CCC[C@@]1(c2ccc(F)cc2)OCc2cc(C#N)ccc21` [Escitalopram Oxalate], the “imaged cell count per well” value was 26100 ± 6400. In the case of `O=C1C(CC[S+]([O-])c2ccccc2)C(=O)N(c2ccccc2)N1c1ccccc1` (racemic) [(+/-)-Sulfinpyrazone], the “imaged cell count per well” value is reported as 20300 ± 6800. With `CC[C@H](C)C[C@H](C)CCCCCCCCC(=O)N[C@H]1C[C@@H](O)[C@@H](NCCN)NC(=O)[C@@H]2[C@@H](O)CCN2C(=O)[C@H]([C@H](O)CCN)NC(=O)[C@H]([C@H](O)[C@@H](O)c2ccc(O)cc2)NC(=O)[C@@H]2C[C@@H](O)CN2C(=O)[C@H]([C@@H](C)O)NC1=O` [Caspofungin Acetate] the “imaged cell count per well” value was 2330 ± 370. In the case of `C[C@@H](c1ncncc1F)[C@](O)(Cn1cncn1)c1ccc(F)cc1F` [Voriconazole], the “imaged cell count per well” value is reported as 2370 ± 1500. In the case of `C=CC1=C(C(=O)O)N2C(=O)[C@@H](NC(=O)/C(=N\OCC(=O)O)c3csc(N)n3)[C@H]2SC1` [Cefixime], the “imaged cell count per well” value is reported as 26000 ± 1600. `COc1ccnc(C[S+]([O-])c2nc3cc(-n4cccc4)ccc3[nH]2)c1C` (stereo not given) [Ilaprazole] was tested, and the “imaged cell count per well” value was 22500 ± 9600. For `C[C@H]1COc2c(N3CCN(C)CC3)c(F)cc3c(=O)c(C(=O)O)cn1c23` [Levofloxacin hydrate], the “imaged cell count per well” value was 20300 ± 6900. In the case of `COc1cc(C(C)=O)ccc1OCCCN1CCC(c2noc3cc(F)ccc23)CC1` [Iloperidone], the “imaged cell count per well” value is reported as 22200 ± 4300. For `Cc1cc2c(s1)Nc1ccccc1N=C2N1CCN(C)CC1` [Olanzapine], the “imaged cell count per well” value was 22400 ± 710. In the case of `Cc1onc(-c2ccccc2)c1C(=O)N[C@@H]1C(=O)N2[C@@H]1SC(C)(C)[C@@H]2C(=O)O` [Oxacillin sodium monohydrate], the “imaged cell count per well” value is reported as 24600 ± 3300. In the case of `CN(C)[C@@H]1C(O)=C(C(N)=O)C(=O)[C@@]2(O)C(O)=C3C(=O)c4c(O)cccc4[C@@](C)(O)[C@H]3[C@H](O)[C@@H]12` [Oxytetracycline Dihydrate], the “imaged cell count per well” value is reported as 20700 ± 3200. `CO/N=C(\C(=O)N[C@@H]1C(=O)N2C(C(=O)[O-])=C(C[N+]3(C)CCCC3)CS[C@H]12)c1csc(N)n1` [Cefepime Dihydrochloride Monohydrate] was tested, and the “imaged cell count per well” value was 25500 ± 7200. In the case of `Cc1[nH]cnc1CN1CCc2c(c3ccccc3n2C)C1=O` [Alosetron Hydrochloride], the “imaged cell count per well” value is reported as 18700 ± 8100. For `CC1(C)S[C@@H]2[C@H](NC(=O)[C@H](C(=O)O)c3ccsc3)C(=O)N2[C@H]1C(=O)O` [Ticarcillin sodium], the “imaged cell count per well” value was 21900 ± 7200. With `Cc1nc(Nc2ccc(F)cc2)nc(N2CCc3ccccc3C2C)c1C` (stereo not given) [Revaprazan Hydrochloride] the “imaged cell count per well” value was 30300 ± 2000. With `CCCCCCCCCCCCCCCCOP(=O)([O-])OCC[N+](C)(C)C` [Miltefosine] the “imaged cell count per well” value was 2800 ± 410. For `C/C=C1\[C@H]2C=C(C)C[C@]1(N)c1ccc(=O)[nH]c1C2` [(-)-Huperzine A (HupA)], the “imaged cell count per well” value was 31100 ± 6800. `CNS(=O)(=O)CCc1ccc2[nH]cc(C3CCN(C)CC3)c2c1` [Naratriptan HCl] was tested, and the “imaged cell count per well” value was 23200 ± 4400. With `Clc1ccc(COC(Cn2ccnc2)c2ccc(Cl)cc2Cl)cc1` (stereo not given) [Econazole] the “imaged cell count per well” value was 3530 ± 430. `CC[C@@]1(O)C(=O)OCc2c1cc1n(c2=O)Cc2cc3cc(O)ccc3nc2-1` [Hydroxy Camptothecine] was tested, and the “imaged cell count per well” value was 24200 ± 3200. For `CCCCCCCCc1ccc(CCC(N)(CO)CO)cc1` [Fingolimod], the “imaged cell count per well” value was 29000 ± 5600. With `CCCc1cc(C(N)=S)ccn1` [Protionamide] the “imaged cell count per well” value was 25600 ± 5000. In the case of `CN(C)CCCN1c2ccccc2CCc2ccc(Cl)cc21` [Clomipramine HCl], the “imaged cell count per well” value is reported as 15800 ± 2600. In the case of `CN[C@H]1CC[C@@H](c2ccc(Cl)c(Cl)c2)c2ccccc21` [Sertraline HCl], the “imaged cell count per well” value is reported as 25700 ± 1600. In the case of `CCCCCCCCCCCCCCCCCCOP(=O)([O-])OC1CC[N+](C)(C)CC1` [Perifosine (KRX-0401)], the “imaged cell count per well” value is reported as 2830 ± 990. For `CCc1c2c(nc3ccc(OC(=O)N4CCC(N5CCCCC5)CC4)cc13)-c1cc3c(c(=O)n1C2)COC(=O)[C@]3(O)CC` [Irinotecan HCl Trihydrate], the “imaged cell count per well” value was 21100 ± 8000. `COC(=O)Nc1nc2cc([S+]([O-])c3ccccc3)ccc2[nH]1` (stereo not given) [Oxfendazole] was tested, and the “imaged cell count per well” value was 20500 ± 6100. For `C[C@]12CC[C@@H]3c4ccc(O)cc4CC[C@H]3[C@@H]1C[C@@H](O)[C@@H]2O` [Estriol], the “imaged cell count per well” value was 22800 ± 4600.
